From PMC12400406 (Organic Letters, 2025) come the findings set out here.

The target in the test is CmnI (Saccharothrix mutabilis subsp. capreolus) (UniProt A6YEI0). Nature of the test: SEC; CmnI alone; oligomeric state; both purified.

These are yes or no findings as the source states them, for the method shown.

B1: CmnI (enzyme, Saccharothrix mutabilis subsp. capreolus, UniProt A6YEI0 1-548, looked up)
chain: MTTETPATTGAPATTGAPAPPGRAEIVAAVLPVFAEVLDAPDLTPDSDFFVHGGNSLLAIRVAGRVGRRLGRQVPPAGVLKHPTPDLLAAHLEEEFRGGGAPPIPAPRAGAEADRRPSTAQERVWLLHQLDPDRLDHLVTVALDVAGTVDPAAFTAAWTAVVRRHEALRSRFVKADDDRVAVVVDAEAAPEISVLDLARFPAPVRDRLAEERVRLLRTTPIRLDTGPLARFALLRLADRRYRIELAVHHIVCDGWSLDTLLADFLDAYGRALAGRSPALPPPAVGFADYVAWERDVESSRWPDMAVRLARRFADRPADLPLPVDPVDVPAHEDGDDVTVHAPPGLAAAVERARTSFGHTALTFHLTALGVLLARITGVDDLVVAVPVAGRAQTEHEDLVGLFVNTALARVRLGGTSDVRVLLERNRDEVDELVDCQTFPFDRLVDLLGARRAGTRVPLARVSLAVQNFDDPGTPAPELGFTWQFRDPPERQSKFDLAFTVSDTDGLRLTVTYRPSLFRRATVAAWAGQYLVALEHVVRGVADPEGSAR
notes: CmnI, A domain-less NRPS module 3 (T-C didomain) of capreomycin biosynthesis, Saccharothrix mutabilis subsp. capreolus; calculated molecular weight of the apo-form construct 61 484.72 Da; also called A domain-less NRPS module CmnI; source: purified
With B1, the binding entry was “no binding”.
